Reference: paper PMC4460958, “Insights into the Modulation of Dopamine Transporter Function by Amphetamine, Orphenadrine, and Cocaine Binding” (Frontiers in Neurology, 2015)

The chains behind the UniProt entries cited, without tags or fusion partners.
UniProt Q01959, whole entry: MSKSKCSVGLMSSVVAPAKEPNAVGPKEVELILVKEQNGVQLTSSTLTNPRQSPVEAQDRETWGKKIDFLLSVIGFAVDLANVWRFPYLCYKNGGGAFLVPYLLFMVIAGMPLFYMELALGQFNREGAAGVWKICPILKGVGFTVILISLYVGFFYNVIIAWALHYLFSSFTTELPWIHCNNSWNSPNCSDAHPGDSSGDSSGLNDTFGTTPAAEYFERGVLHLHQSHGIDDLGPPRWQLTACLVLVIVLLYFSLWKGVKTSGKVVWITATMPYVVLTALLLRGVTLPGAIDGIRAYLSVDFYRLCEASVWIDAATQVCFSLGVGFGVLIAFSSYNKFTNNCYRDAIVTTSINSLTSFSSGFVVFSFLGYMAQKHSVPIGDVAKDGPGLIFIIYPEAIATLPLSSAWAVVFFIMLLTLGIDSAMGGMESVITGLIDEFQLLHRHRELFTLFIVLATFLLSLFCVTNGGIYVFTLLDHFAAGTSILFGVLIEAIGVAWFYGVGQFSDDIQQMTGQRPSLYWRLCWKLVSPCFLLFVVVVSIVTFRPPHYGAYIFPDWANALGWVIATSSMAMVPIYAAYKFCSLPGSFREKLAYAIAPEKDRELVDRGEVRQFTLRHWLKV

Molecular target: T1, human dopamine transporter (hDAT) (Homo sapiens, UniProt Q01959)
T1 construct: gene SLC6A3
Assay: cell-based

Cc1ccccc1C(OCCN(C)C)c1ccccc1 (stereo not shown) [ORPH, orphenadrine] was tested, and the IC50 was ~10 µM.
